Measured values as given in EP1591123A1, “USES OF NARINGENIN, NARINGIN AND SALTS THEREOF AS EXPECTORANTS IN THE TREATMENT OF COUGH, AND COMPOSITIONS THEREOF” (Su, Wei-wei, priority 2003, dated 2004).
Counter-ions that a name gives are not always drawn. At least one structure is not confirmed: it was looked up by name or label, or the drawing left a doubt.

Legend:
mice [1] = assay: Dispel phlegm test of Naringenin, Phenol Red excretion in trachea (Example 31); assay type: in vivo
Text: • 1. Animal: 80 healthy female mice weighing 18.5-22.0g was grouped into 8 groups random after labeled, which was selected from 90 female mice weighing 18.0-22.1g. Every group was 10 mice. Eight groups were set including negative control group, positive control group, high dose group of Naringenin, middle dose group of Naringenin, low dose group of Naringenin, high dose group of sodium salt of Naringenin, middle dose group of sodium salt of Naringenin, low dose group of sodium salt of Naringenin. […] The series solution including 6.25ng/ml, 3.125ng/ml, 1.5625 ng/ml, 0.7813 ng/ml, 0.3906 ng/ml, 0.1953 ng/ml, 0.0977 ng/ml, 0.0488 ng/ml was prepared by diluting, which was detected by ultraviolet spectrometer. The calibration curve was calculated by concentration of Phenol Red as y-axis and OD value as x-axis. And the excretion account of Phenol Red in mice was quantitated by calibration curve. • 2) Animals were fasted for 12 hr before dosing. • 3) Animals were oral administered with labeled number, each animal was administered with 3 min and each group was accomplished in 30 min. • 4) After administered 30 min, every animal was injected 2 ml 5% Phenol Red solution via celiac injection. […]

mice [2] = assay: Antitussive test of Naringenin, spray by high concentration ammonia (Example 30); assay type: in vivo; conditions: compared with Dextromethorphan Hydrobromide (positive control group)
Text: 1. Animal: 120 healthy male mice weighing 19.5-22.1g was grouped into 8 groups random after labeled, which was selected from 130 male mice weighing 19.3-22.6g. Every group was 15 mice. Eight group were set including negative control group, positive control group, high dose group of Naringenin, middle dose group of Naringenin, low dose group of Naringenin, high dose group of sodium salt of Naringenin, middle dose group of sodium salt of Naringenin, low dose group of sodium salt of Naringenin. […]
We calculated the spraying time that half of mice were tusisive by sequential method. And calculated the R, the drug was provided with effect of relieve a cough if R>130%. […]

O=C1C[C@@H](c2ccc(O)cc2)Oc2cc(O)cc(O)c21 [sodium salt of Naringenin]
dispel phlegm effect (mice [1]; high dose group compared to positive control group of Tankejing): statistical better than Tankejing | exudates increase of mice trachea (mice [1]; three doses (low, middle, high), versus negative control group): statistical significance stimulate the exudates increase of mice trachea | time of appearing tussis (mice [2]): statistical significance prolonging the time
